# For part of these data: What follows is the remainder of the data, with few or none of the hits. Only a part is listed here, and it is no random draw. The source made the active and inactive calls. How the source made its calls: active means hit-call score of the fitted dose curve at least 0.9, where 1 is the maximum; inactive means score below 0.9.
# Sequences of proteins named here, by UniProt entry; tags and fusion partners are left off.
# UniProt P24462, whole entry, looked up: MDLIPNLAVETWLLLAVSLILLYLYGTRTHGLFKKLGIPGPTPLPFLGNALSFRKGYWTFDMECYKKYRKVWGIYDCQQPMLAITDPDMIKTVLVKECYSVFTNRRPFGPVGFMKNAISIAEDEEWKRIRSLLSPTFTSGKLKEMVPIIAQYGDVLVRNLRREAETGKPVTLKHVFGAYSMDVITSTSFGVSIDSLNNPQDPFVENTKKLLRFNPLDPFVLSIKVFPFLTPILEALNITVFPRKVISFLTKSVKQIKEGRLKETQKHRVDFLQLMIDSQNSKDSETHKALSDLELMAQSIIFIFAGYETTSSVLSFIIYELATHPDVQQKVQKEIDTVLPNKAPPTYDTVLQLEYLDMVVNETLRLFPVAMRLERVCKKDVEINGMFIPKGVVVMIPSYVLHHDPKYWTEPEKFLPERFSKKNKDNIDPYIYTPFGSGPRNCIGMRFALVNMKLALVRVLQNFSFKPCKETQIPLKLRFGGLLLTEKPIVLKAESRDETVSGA
# What was measured:
# Conditions in all cases: actives raise or lower the signal; mRNA level, 48 h
# [1] = read-out: Cytochrome P450 (CYP1A1), CYP1A1 (gene 1543); experiment: LTEA_HepaRG_CYP1A1: Life Technologies and Expression Analysis (LTEA) Assay for Cytochrome P450 (CYP1A1) using HepaRG (AID 2283454)
# How it was run: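 Differentiated human HepaRG cells, after 48 h plating, exposed in duplicate for 48 h in serum-free induction medium to 8 half-log concentrations up to 100 uM in 0.5% DMSO. CYP1A1 mRNA by qRT-PCR, normalized to ACTB/GAPDH/POLR2A; bidirectional fit versus DMSO.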
# [2] = read-out: Cytochrome P450 (CYP24A1), CYP24A1 (gene 1591); experiment: LTEA_HepaRG_CYP24A1: Life Technologies and Expression Analysis (LTEA) Assay for Cytochrome P450 (CYP24A1) using HepaRG (AID 2283478)
# How it was run: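 HepaRG cells plated 48 h, then exposed in duplicate in serum-free induction medium for 48 h to 8-point half-log series from 100 uM in 0.5% DMSO. CYP24A1 mRNA by Fluidigm qRT-PCR, normalized to ACTB, GAPDH, POLR2A; bidirectional fit versus DMSO.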
# [3] = read-out: Cytochrome P450 (CYP1A2), CYP1A2 (gene 1544); experiment: LTEA_HepaRG_CYP1A2: Life Technologies and Expression Analysis (LTEA) Assay for Cytochrome P450 (CYP1A2) using HepaRG (AID 2283479)
# How it was run: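 Differentiated human HepaRG cells in serum-free induction medium exposed 48 hours in duplicate to 8 half-log concentrations from 100 uM, 0.5% DMSO. CYP1A2 mRNA quantified by qRT-PCR, normalized to ACTB, GAPDH and POLR2A; bidirectional fitting versus DMSO.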
# [4] = read-out: Cytochrome P450 (CYP2B6), CYP2B6 (gene 1555); experiment: LTEA_HepaRG_CYP2B6: Life Technologies and Expression Analysis (LTEA) Assay for Cytochrome P450 (CYP2B6) using HepaRG (AID 2283481)
# How it was run: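 Differentiated human HepaRG cells in serum-free induction medium, dosed in duplicate for 48 h over 8 half-log concentrations topping at 100 uM (0.5% DMSO). CYP2B6 mRNA measured by TaqMan qRT-PCR, normalized to ACTB, GAPDH, POLR2A; bidirectional fit versus DMSO.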
# [5] = read-out: Cytochrome P450 3A7 (Homo sapiens) (UniProt P24462); experiment: LTEA_HepaRG_CYP3A7: Life Technologies and Expression Analysis (LTEA) Assay for CYP3A7 using HepaRG (AID 2283492)
# How it was run: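 Differentiated HepaRG cells in serum-free induction medium exposed 48 h in duplicate to 8-point half-log series from 100 uM top in 0.5% DMSO. CYP3A7 mRNA by qRT-PCR, normalized to ACTB/GAPDH/POLR2A, bidirectional fit versus DMSO.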
# CYP3A5 (gene 1577) = experiment: LTEA_HepaRG_CYP3A5: Life Technologies and Expression Analysis (LTEA) Assay for CYP3A5 using HepaRG (AID 2283493)
# How it was run: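 Differentiated HepaRG cells in serum-free induction medium were dosed 48 h with test chemicals (8-point half-log series, top 100 uM, 0.5% DMSO, duplicate). CYP3A5 mRNA measured by qRT-PCR, normalized to ACTB, GAPDH, POLR2A; bidirectional fit versus DMSO.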
compound,measurement,setting,value
CS(=O)(=O)c1ccc([C@@H](C[C@H]2CCC(=O)C2)C(=O)Nc2cnccn2)cc1Cl,AC50,[1],active: 14.7 µM
same,AC50,[2],active: 4 µM
same,AC50,[3],active: 1.18 µM
same,AC50,[4],active: 1.45 µM
same,AC50,[5],active: 20.2 µM
same,outcome,CYP3A5 (gene 1577),inactive

# From PubChem BioAssay (EPA / NIEHS)
